Where a chain is given by its changes, count along the chain named. The list shows a part of the results. For some assays here: At the low end of the ranking the order means little.
How the values were obtained:
Conditions in all cases: yeast three-hybrid, YBZ-1, SC-Leu-His + 0.5 mM 3-AT, 4 days
[1] = biological target: T1, PUM1 PUF domain R6-TWA N1043T + Y1044W + Q1047A (Homo sapiens) (UniProt Q14671)
T1 sequence: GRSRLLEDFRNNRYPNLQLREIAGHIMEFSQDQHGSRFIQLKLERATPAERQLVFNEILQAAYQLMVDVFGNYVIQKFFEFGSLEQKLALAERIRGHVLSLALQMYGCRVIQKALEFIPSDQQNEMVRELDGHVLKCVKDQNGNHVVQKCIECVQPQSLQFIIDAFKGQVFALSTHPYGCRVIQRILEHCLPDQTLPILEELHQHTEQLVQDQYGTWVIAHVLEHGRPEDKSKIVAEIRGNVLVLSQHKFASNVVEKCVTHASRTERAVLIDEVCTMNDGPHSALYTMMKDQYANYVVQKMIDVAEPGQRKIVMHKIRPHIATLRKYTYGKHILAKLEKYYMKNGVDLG

[2] = biological target: T2, PUM1 PUF domain R6-TWV N1043T + Y1044W + Q1047V (Homo sapiens) (UniProt Q14671)
T2 sequence: T1 sequence with A220V

[3] = biological target: T3, PUM1 PUF domain R6-VWH N1043V + Y1044W + Q1047H (Homo sapiens) (UniProt Q14671)
T3 sequence: T1 sequence with T216V, A220H

[4] = biological target: T4, PUM1 PUF domain R6-SWR N1043S + Y1044W + Q1047R (UniProt Q14671)
T4 sequence: T1 sequence with T216S, A220R

[5] = biological target: T5, PUM1 PUF domain R6-SYR N1043S + Q1047R (UniProt Q14671)
T5 sequence: T1 sequence with T216S, W217Y, A220R

[6] = biological target: T6, PUM1 PUF domain R6-TFA N1043T + Y1044F + Q1047A (UniProt Q14671)
T6 sequence: T1 sequence with W217F

[7] = biological target: T7, PUM1 PUF domain R6-TFG N1043T + Y1044F + Q1047G (UniProt Q14671)
T7 sequence: T1 sequence with W217F, A220G

[8] = biological target: T8, PUM1 PUF domain R6-TFT N1043T + Y1044F + Q1047T (UniProt Q14671)
T8 sequence: T1 sequence with W217F, A220T

[9] = biological target: T9, PUM1 PUF domain R6-TWA N1043T + Y1044W + Q1047A (UniProt Q14671)
T9 sequence: T1 sequence

[10] = biological target: T10, PUM1 PUF domain R6-TWK N1043T + Y1044W + Q1047K (UniProt Q14671)
T10 sequence: T1 sequence with A220K

[11] = biological target: T11, PUM1 PUF domain R6-TWQ N1043T + Y1044W (UniProt Q14671)
T11 sequence: T1 sequence with A220Q

[12] = biological target: T12, PUM1 PUF domain R6-TWS N1043T + Y1044W + Q1047S (UniProt Q14671)
T12 sequence: T1 sequence with A220S

[13] = biological target: T13, PUM1 PUF domain R6-TWT N1043T + Y1044W + Q1047T (UniProt Q14671)
T13 sequence: T1 sequence with A220T

[14] = biological target: T14, PUM1 PUF domain R6-TWV N1043T + Y1044W + Q1047V (UniProt Q14671)
T14 sequence: T1 sequence with A220V

[15] = biological target: T15, PUM1 PUF domain R6-TYR N1043T + Q1047R (UniProt Q14671)
T15 sequence: T1 sequence with W217Y, A220R

[16] = biological target: T16, PUM1 PUF domain R6-VFK N1043V + Y1044F + Q1047K (UniProt Q14671)
T16 sequence: T1 sequence with T216V, W217F, A220K

[17] = biological target: T17, PUM1 PUF domain R6-VFR N1043V + Y1044F + Q1047R (UniProt Q14671)
T17 sequence: T1 sequence with T216V, W217F, A220R

[18] = biological target: T18, PUM1 PUF domain R6-VWC N1043V + Y1044W + Q1047C (UniProt Q14671)
T18 sequence: T1 sequence with T216V, A220C

[19] = biological target: T19, PUM1 PUF domain R6-VWG N1043V + Y1044W + Q1047G (Homo sapiens) (UniProt Q14671)
T19 sequence: T1 sequence with T216V, A220G

[20] = biological target: T20, PUM1 PUF domain R6-SYA N1043S + Q1047A (Homo sapiens) (UniProt Q14671)
T20 sequence: T1 sequence with T216S, W217Y

Work on “GGCUAGAACUAGUGGAUCCCCCGGCGCCCGGCGGCUCGAGCCCGGGUAAGUGUAAAUAGUCUGCAUGCCGCCGGGCGCCAUGCCUGCAGGUCGACUCUAGAAAACAUG” yielded a binding signal (log2 enrichment (interaction score)) [1] of 1.14, a binding signal (log2 enrichment (interaction score)) [2] of 0.59 and a binding signal (log2 enrichment (interaction score)) [3] of -4.25.
Work on “GGCUAGAACUAGUGGAUCCCCCGGCGCCCGGCGGCUCGAGCCCGGGUAAGUGGAAAUAGUCUGCAUGCCGCCGGGCGCCAUGCCUGCAGGUCGACUCUAGAAAACAUG” yielded a binding signal (log2 enrichment (interaction score)) [4] of under -9.61, a binding signal (log2 enrichment (interaction score)) [5] of under -7.98 and a binding signal (log2 enrichment (interaction score)) [6] of under -6.84. The binding signal (log2 enrichment (interaction score)) [7] was -6.91, the binding signal (log2 enrichment (interaction score)) [8] was under -9.84 and the binding signal (log2 enrichment (interaction score)) [9] was under -8.19. The binding signal (log2 enrichment (interaction score)) [10] was -4.49, the binding signal (log2 enrichment (interaction score)) [11] was -4.2 and the binding signal (log2 enrichment (interaction score)) [12] was under -8.4. For the same sequence, the binding signal (log2 enrichment (interaction score)) [13] was under -8.18, the binding signal (log2 enrichment (interaction score)) [14] was under -8.72 and the binding signal (log2 enrichment (interaction score)) [15] was under -7.93. It also gave a binding signal (log2 enrichment (interaction score)) [16] of under -7.92, a binding signal (log2 enrichment (interaction score)) [17] of under -9.04 and a binding signal (log2 enrichment (interaction score)) [18] of under -6.28. The binding signal (log2 enrichment (interaction score)) [19] was -2.38.
Sequence “GGCUAGAACUAGUGGAUCCCCCGGCGCCCGGCGGCUCGAGCCCGGGUAAGUGAAAAUAGUCUGCAUGCCGCCGGGCGCCAUGCCUGCAGGUCGACUCUAGAAAACAUG” has a binding signal (log2 enrichment (interaction score)) [20] of -0.61.

From publication PMC8384837
